No constants are given. Whether binding was seen depends on the method and setting.
Target: MBP-MCM9, wild type human MCM9 (human) (UniProt Q9NXL9)
Test: mass photometry; 50 mM Tris-HCl pH 7.5, 100 mM NaCl; 50–200 nM final protein; no DNA; for MCM8–9 oligomers are counted in subunits (heterodimer 266 kDa, hexamer 798 kDa): heterodimers to tetramers and hexamers; both purified

Sequences of proteins named here, by UniProt entry; tags and fusion partners are left off.
UniProt Q9NXL9: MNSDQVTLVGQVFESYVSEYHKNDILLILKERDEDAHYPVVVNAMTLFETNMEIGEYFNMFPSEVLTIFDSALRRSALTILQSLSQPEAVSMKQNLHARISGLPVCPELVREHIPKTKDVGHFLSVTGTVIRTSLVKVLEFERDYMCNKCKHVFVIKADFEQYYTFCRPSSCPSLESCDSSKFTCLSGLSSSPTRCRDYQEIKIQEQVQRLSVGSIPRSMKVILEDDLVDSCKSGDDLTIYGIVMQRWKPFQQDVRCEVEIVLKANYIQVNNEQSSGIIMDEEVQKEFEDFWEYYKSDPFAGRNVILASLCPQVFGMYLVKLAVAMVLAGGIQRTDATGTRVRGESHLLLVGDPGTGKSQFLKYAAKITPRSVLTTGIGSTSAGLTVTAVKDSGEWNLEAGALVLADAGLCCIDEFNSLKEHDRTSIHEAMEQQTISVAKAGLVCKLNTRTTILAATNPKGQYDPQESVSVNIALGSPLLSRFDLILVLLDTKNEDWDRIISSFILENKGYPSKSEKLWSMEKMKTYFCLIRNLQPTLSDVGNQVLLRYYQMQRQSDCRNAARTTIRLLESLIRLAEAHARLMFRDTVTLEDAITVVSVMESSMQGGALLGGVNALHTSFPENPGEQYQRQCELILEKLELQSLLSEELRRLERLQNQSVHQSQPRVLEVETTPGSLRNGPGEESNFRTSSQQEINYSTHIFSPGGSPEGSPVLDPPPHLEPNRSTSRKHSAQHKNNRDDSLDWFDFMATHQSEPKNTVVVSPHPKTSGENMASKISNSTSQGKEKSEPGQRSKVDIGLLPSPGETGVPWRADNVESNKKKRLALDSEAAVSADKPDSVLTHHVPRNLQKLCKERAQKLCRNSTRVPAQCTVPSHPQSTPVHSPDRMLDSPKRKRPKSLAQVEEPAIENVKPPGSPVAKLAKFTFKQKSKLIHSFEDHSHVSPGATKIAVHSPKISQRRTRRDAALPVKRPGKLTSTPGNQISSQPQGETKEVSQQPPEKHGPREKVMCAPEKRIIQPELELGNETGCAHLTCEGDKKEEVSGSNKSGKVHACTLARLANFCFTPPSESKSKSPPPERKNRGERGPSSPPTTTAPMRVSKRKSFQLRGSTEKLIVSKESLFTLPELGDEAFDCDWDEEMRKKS

MBP-MCM9, wild type human MCM9 (from UniProt Q9NXL9 1-1143)
binding: no binding
